Among the data in patent US20110020344A1 (US Dept. of Health and Human Services, published 2011) are binding values, retold here.

Results are given in words; binding and its absence hold for the method and conditions named. Some results given as binding are weak or reduced against the parent protein; the word gives no strength.

The target in one assay is T1, Soluble CD22 (PeproTech) (human, UniProt P20273 20-687, limits assumed).
T1 construct: Bought from PeproTech; also called sCD22; soluble CD22 purified from mammalian cells
T1 sequence: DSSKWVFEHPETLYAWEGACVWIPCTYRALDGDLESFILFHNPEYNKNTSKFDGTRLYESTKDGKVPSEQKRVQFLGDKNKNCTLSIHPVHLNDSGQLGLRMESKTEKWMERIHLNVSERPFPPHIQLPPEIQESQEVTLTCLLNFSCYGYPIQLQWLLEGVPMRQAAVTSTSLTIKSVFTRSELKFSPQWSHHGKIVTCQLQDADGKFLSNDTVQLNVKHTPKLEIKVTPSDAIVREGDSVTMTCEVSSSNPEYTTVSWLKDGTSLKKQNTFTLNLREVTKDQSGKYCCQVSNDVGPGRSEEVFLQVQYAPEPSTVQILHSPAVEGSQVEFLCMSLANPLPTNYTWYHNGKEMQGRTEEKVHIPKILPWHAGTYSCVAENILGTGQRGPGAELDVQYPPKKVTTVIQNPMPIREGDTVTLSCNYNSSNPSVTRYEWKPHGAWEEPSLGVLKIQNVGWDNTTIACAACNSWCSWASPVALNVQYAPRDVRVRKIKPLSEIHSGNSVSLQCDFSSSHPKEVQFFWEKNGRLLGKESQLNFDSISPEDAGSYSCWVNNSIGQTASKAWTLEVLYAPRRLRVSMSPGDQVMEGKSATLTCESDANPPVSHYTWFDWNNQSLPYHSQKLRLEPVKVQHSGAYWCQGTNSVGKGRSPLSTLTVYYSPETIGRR
Briefly: ELISA on coated soluble CD22.

The target of assay [1] is CD22 region including domains 5 to 7 (human) (UniProt P20273). Put plainly: ELISA: coated antibody captures Myc/His tagged CD22 fragments, anti-Myc-HRP detection.

B1: Fab m972 (Fab, V domains shown)
VH: EVQLVQSGGGVVRPGGSLRLPCAASGFTFDDYGMSWVRQAPGKGLEWVSGINWNGGSTGYADSVKGRFTISRDNAKNSLYLQMNSLRAEDTALYHCARGGDDAFDIWGQGTMVTVSS
VL: RIVMTQSPGTLSVSPGETATLSCRASQSFSNMLAWYQQKSGQPPRLLIYGVSTRAAGVPARFSGSGSGTEFTLTISNLQSEDFAVYYCQQYGDWPRYTFGQGTKVERKR
notes: Human Fab from a naive Fab phage library, expressed in E. coli HB2151; also called m972 Fab
As to B1, the binding result (with Soluble CD22 (PeproTech); in assay [1]) was “binds” throughout.
